Source: PubChem BioAssay AID2685 (National Center for Advancing Translational Sciences (NCATS), 2010)
Some of the results follow. Further columns of the screen follow, without active or inactive calls. Most of these compounds were active or inconclusive in the main read-out, so they are no random draw. Words in brackets tell the shape of the fitted curve; partial curves, single points and poor fits give uncertain potencies.

Experiment: qHTS Assay for Lipid Storage Modulators in Drosophila S3 Cells;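 for cell number change: cells counted by Cell Tracker Red CMTPX staining in the red channel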
Details: BODIPY lipid droplet fluorescence, 18-24 h; for cell number change: measured here: cell count max response, cells fed with added oleic acid
Method in brief: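 Drosophila S3 cells got compounds at several concentrations plus oleic acid (400 uM solution). Laser-scanning cytometry with 488 nm excitation read lipid droplets at 500-530 nm and cells at 575-640 nm. Percent activity was relative to 20 uM Triacsin C.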

[1] = measured here: lipid fluorescence (Fed channel) AC50, cells fed with added oleic acid
[2] = measured here: cell number channel AC50, cells fed with added oleic acid

Row | Structure (SMILES) | cell number change | AC50 [1] | AC50 [2]
1 | COc1ccc(F)cc1S(=O)(=O)NCc1cc(=O)n(C)c(=O)n1C | 9.14% | 29.1 µM [rising, single point] | 
2 | Cc1ccc(C)c(OCC(O)CN2C(C)CCCC2C)c1 (configuration not stated) | -52.3% | 23.1 µM [falling, single point] | 29.1 µM [falling, single point]
3 | CCN1CCN(c2nc3c(C)cccn3c(=O)c2/C=C(\C#N)S(=O)(=O)c2ccc(C)cc2)CC1 |  |  | 0.116 µM [rising, full curve, poor fit]
4 | COc1ccc(Oc2coc3c(CN(C)C)c(O)ccc3c2=O)cc1 | 22.4% | 29.1 µM [rising, single point] | 
5 | O=C(Nc1ccc(Cc2ccc(NC(=O)C3CC3)cc2)cc1)C1CC1 | -4.74% | 29.1 µM [falling, single point] | 
6 | COc1ccccc1CNC(=O)COC(=O)C1=COCCO1 | 12.4% | 4.61 µM [falling, single point] | 
7 | COc1ccc(N2CCN(C(=O)CSc3nnnn3C3CC3)CC2)cc1 | 4.28% | 29.1 µM [rising, single point] | 
8 | O=C(CNc1cccc(S(=O)(=O)N2CCOCC2)c1)Nc1cccc(Br)c1 |  | 6.51 µM [rising, single point] | 
9 | COc1ccc(C2CC2/C(C)=N/OC(=O)c2ccc(F)cc2)cc1 (configuration not stated) | 0.342% |  | 
10 | Clc1ccc(SCc2cn3ccccc3n2)cc1 | 18.9% |  | 
11 | COc1ccc(CCNC(=O)c2cc(C(=O)c3cc(C)ccc3O)cn(CCc3ccc(OC)cc3)c2=O)cc1 | -78.8% | 32.6 µM [falling, single point] | 11.6 µM [falling, partial curve, poor fit]
12 | CCNc1cc(S(=O)(=O)C(F)(F)F)ccc1N | -0.57% | 29.1 µM [falling, partial curve, poor fit] | 
13 | COc1ccc(/C=N/NC(=O)c2[nH]c3ccc(Br)cc3c2-c2ccccc2)c(C(=O)O)c1OC | 4.8% | 29.1 µM [rising, single point] | 
14 | CCCCCCCCCC[N+](C)(C)CC/C=C1/c2ccccc2Sc2ccc(Cl)cc21 | -63% | 13 µM [falling, partial curve] | 11.6 µM [falling, partial curve]
15 | Cc1[nH]nc2c1C(c1ccc(-c3ccccc3C#N)o1)C(C#N)=C(N)O2 (configuration not stated) | -25.3% | 0.103 µM [rising, full curve, poor fit] | 
16 | Cc1cccc(-n2c(=S)[nH]c3c(oc4ccccc43)c2=O)c1 | 1.02% |  | 
17 | CCOC(=O)C1=C(O)/C(=C\c2ccc(CNC(=O)C(=O)Nc3ccccc3)o2)N=C1C | 44.6% |  | 11.6 µM [rising, partial curve]

Part of the list above in order of heavy-atom count, smallest number first:
Row | Structure (SMILES) | cell number change | AC50 [1] | AC50 [2]
2 | Cc1ccc(C)c(OCC(O)CN2C(C)CCCC2C)c1 (configuration not stated) | -52.3% | 23.1 µM [falling, single point] | 29.1 µM [falling, single point]
14 | CCCCCCCCCC[N+](C)(C)CC/C=C1/c2ccccc2Sc2ccc(Cl)cc21 | -63% | 13 µM [falling, partial curve] | 11.6 µM [falling, partial curve]
11 | COc1ccc(CCNC(=O)c2cc(C(=O)c3cc(C)ccc3O)cn(CCc3ccc(OC)cc3)c2=O)cc1 | -78.8% | 32.6 µM [falling, single point] | 11.6 µM [falling, partial curve, poor fit]
